Literature values as cited in patent US8524863B2, “Amyloid-beta peptide crystal structure” (Commonwealth Scientific and Industrial Research Organisation, priority 2008, dated 2013).
At least one compound was matched to its structure with a doubt left.

Amino acid sequences for entries named in this document (tags omitted). Residues count along the entry.
UniProt P05067, 672-713 limits assumed: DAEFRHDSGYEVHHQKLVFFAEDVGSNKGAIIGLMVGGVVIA

Target: Aβ (Homo sapiens, UniProt P05067)
Conditions: Kukar et al. Nature 453, 925-929 (2008)

SMILES: CC(C)OC(=O)C(C)(C)Oc1ccc(C(=O)c2ccc(Cl)cc2)cc1 [fenofibrate]
- binding to Aβ: has been shown to bind Aβ
